Test results taken from PubChem BioAssay AID1347423 (Functional Genomics Laboratory (NCATS/FGL), 2020).
Screen size: about 52,000 sequences; about 210 (0.4%) were called active.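 Rule for the calls: active = gene whose silencing raises cell survival under the drug, median off-target-corrected z-score across its silencing RNAs 2 or more; inactive = the rest.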 Some of the results follow.

Test: Resistance to Poly (ADP-Ribose) Polymerase inhibitor: Gene Identification via Genome-wide siRNA Screen
Settings: mouse BRCA2 R2336H ES cells, olaparib, CellTiter-Glo viability; active compounds read high
Method in brief: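 Mouse BRCA2 R2336H ES cells were reverse-transfected with siRNA (20 nM final), treated at 48 h with 500 nM olaparib, and read by CellTiter-Glo after 72 h. Scores: MAD-based z per siRNA, median per gene, seed off-target correction.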

| Sequence | z-score |
| --- | --- |
| GGUCAUCACUUAUUACCCATT against Ptges2 | inactive: 0.133 |
| CCAUCCCAUAUAACGAUCUTT against Oat | inactive: 0.0491 |
| GCAGACUGAAUAUUGAAAGTT against Cry1 | inactive: -0.36 |
| CCCAUAGAUUUUUUGACAGTT against Hbb-y | inactive: 1.34 |
| GGACUCCAGAGAAAGAGGCTT against Tcf15 | inactive: 0.357 |
| GCUGUAUGAAGUUAGAUUUTT against Car8 | inactive: 1.58 |
| GGUUUGUUUUACAAAAUGCTT against Zdhhc5 | inactive: 0.648 |
| GGUUGAACCCACUCUGCAATT against Olfr1113 | inactive: -2.16 |
| CCAACACUGAGCUCAGAAGTT against Igfbp2 | inactive: 0.322 |
| GCUUUAGUACAGGCCUCUATT against Pols | inactive: -1.09 |
| GCACUUACCCACUCUGAACTT against Gt4-1 | inactive: -0.497 |
| GGUUUUUCCAGCUGUUUUCTT against Olfr618 | inactive: 2.04 |
| GCUCUUCAUAACUCUUGCUTT against Olfr1392 | inactive: -0.036 |
| GCUUGUGCGAGUGUUGGAUTT against Has1 | inactive: 0.514 |
| GCACCCGGCACUAGAAAAATT against Shoc2 | inactive: 0.638 |
| GGCACAAUCACAUCACAGCTT against Lrrtm2 | inactive: 0.159 |
| CGAGAUCAGAAAACUGACUTT against Cpa4 | inactive: 0.314 |
| UGACUGGGCUAAUAGGAGATT against Olfr1469 | inactive: 0.895 |
| GGAUGCAGUUCAAAAGAGATT against Acox2 | inactive: 1.2 |
| GGCAUGGACAUUGAUGACATT against Dnajb1 | inactive: 0.341 |
| GGAUUUUGAUCUAAUGAGATT against Zfp354c | inactive: 0.236 |
| CCCACUGCUCUAUUCAACUTT against Olfr484 | inactive: 1.25 |
| GCAUUCCAAAUGGUAGACATT against Lgals4 | inactive: -0.176 |
| GGACAGCAAAAAAGAUGUGTT against Myo6 | inactive: 0.761 |
| GGAGCAAGCAUGCAAGGUGTT against Cstf2 | inactive: -1.03 |
| GGCCAGUCACUAAAAUCACTT against Mbd3l1 | inactive: 0.69 |
| GGAAAUAAGACCAACAUACTT against Arhgap19 | inactive: -0.751 |

| Sequence | z-score |
| --- | --- |
| GGGACUUUGGAUUCAAGCGTT against Slp | inactive: 0.191 |
| GGCCAGGAGAUUCCUAUGATT against 9330132O05Rik | inactive: -0.955 |
| GGCACUCAAUAAAUAUUUGTT against Tubb5 | inactive: 0.163 |
| GGAUAUGAUGUCAAACCCUTT against AI663987 | inactive: -0.0725 |
| GGCACUUUCGGGAAUUCACTT against Nup160 | inactive: -2.94 |
| GCUGUUUCUACAUCAUCUATT against Nup210 | inactive: 0.25 |
| GGGACUUCUUGUGAAUGGATT against Mobp | inactive: -0.971 |
| CCCUUGAAGAUCACUUAGCTT against Apln | inactive: 0.228 |
| CGAAGUGUGGCUGAUUCAGTT against Hebp2 | inactive: -1.71 |
| GCUCAUCGACGGUCACUUUTT against 2310057D15Rik | inactive: -0.624 |
| GGAACACAGUUAAGUGGAUTT against V1ri7 | inactive: 1.3 |
| GGUGCUAAUCCCAAUUUGATT against Cdkn2c | inactive: 0.56 |
| GGAUCAAAUAACAAUGACATT against A330009G12Rik | inactive: -0.0208 |
| GGUGUACCAAGCUGUGACATT against Rgmb | inactive: -0.444 |
| GCAUCAUUCGCUGUGAUGATT against Trim23 | inactive: 0.1 |
| GCUACCUCUUGCAUGGGAGTT against Bivm | inactive: 0.428 |
| UAAUAAAAGGAGGUGGUUCTT against MGC58426 | inactive: -0.788 |
| GGAGAAACUUCGAGAUAGATT against 0610042E07Rik | inactive: 0.228 |
| CCCUAGCAAAGCUACUUUCTT against 1700029B21Rik | inactive: -1.86 |
| GGAGAAGUUCUGAACUGCUTT against MGC27742 | inactive: -0.926 |
| GCAAGAAGGGACACAGUUUTT against Plk1 | inactive: 0.0578 |
| GGACAAAUUUGGAUAAAUGTT against Abcg8 | inactive: -0.827 |
| GGGAGGCAGAAAGUCUUCUTT against Olfr1043 | inactive: -0.617 |
| GGACAAAACUAAACAGCAATT against Smarcal1 | inactive: -0.645 |
| GGAUAGGGUCCAUCAUGGATT against Rcn3 | inactive: -0.863 |
| GGAAGAGAAACGACAAAAUTT against Olfr293 | inactive: 1.18 |
| GGCAACCUGCUGGUAAUCATT against Adrb3 | inactive: -0.361 |

| Sequence | z-score |
| --- | --- |
| GCGGAAGGUUUACAAUGAUTT against Dyrk1a | inactive: 0.94 |
| GGAGGAUGGAGUCAUAUAUTT against Gm773 | inactive: -0.0566 |
| CCAAAACAAGAAUCAUAUGTT against Clca4 | inactive: 0.564 |
| GGCAUUAAGAUCAUUAAGCTT against Myadm | inactive: 0.335 |
| GCGCAGAACAGCCCUAUAATT against Ndufs5 | inactive: -2.95 |
| GGAUGUCUGUACAUACAGATT against Tshb | inactive: -0.915 |
| GCGUGUUUGCCUCGGCAAATT against D030015G18Rik | inactive: -0.547 |
| GGAUCAUGAGAAUAUCAUCTT against P4hb | inactive: 0.481 |
| GGUCUCCAGACUUGUAUAATT against A530090P03Rik | inactive: -2.51 |
| GGAGAUGAAAAAAACGAGCTT against Tmem5 | inactive: 1.92 |
| GGUACUCGAAUCUGACCUCTT against Nqo1 | inactive: 0.53 |
| GGACCUAUUACCUCAAUGATT against 1700027D21Rik | inactive: -0.116 |
| GCUGUAUCAGUCUUUCUAUTT against Cyp27b1 | inactive: -1.61 |
| GGAAUGCAGAAAUGAAAAATT against Olfr1234 | inactive: -0.169 |
| GGACCAAUCUAGAGCCCAUTT against 4732456N10Rik | inactive: -2.57 |
| UGGUCGGCUAGAUGAUGGATT against Wdr34 | inactive: -1.36 |
| GGAUGUGCCAUUGAAGAUCTT against Apg4c | inactive: 0.614 |
| GAACCUUUUCCGUUUCGAGTT against Cebpb | inactive: 0.245 |
| GGACCGUCAGUGUCAUGGATT against Zfp397 | inactive: -2.5 |
| CCAAGUCUUGUAGUGGAGUTT against Vdac3 | inactive: 0.948 |
| GGAUGUUGUGGGAAAUGACTT against Hrasls | inactive: 0.145 |
| GGAGUGACAAAAGAAAUAATT against Nudt12 | inactive: 0.0657 |
| GGGAAAGACCAUGUUUGUATT against Ttbk1 | inactive: 0.564 |
| GGAUCAGACAUGCAAGAGGTT against Xlr5 | inactive: -0.0653 |
| AGUGCCUGUCUGAUUGCUCTT against Epsti1 | inactive: 0.515 |
| GGACAUCUUUUCAAACGUGTT against Centb1 | inactive: -0.258 |
| GCAGCCUUCGUGAGUCUGUTT against Asb1 | inactive: -1.24 |

Not a retest: entries from further up.

| Sequence | z-score |
| --- | --- |
| GGAUGUUGUGGGAAAUGACTT against Hrasls | inactive: 0.145 |
| GGAGUGACAAAAGAAAUAATT against Nudt12 | inactive: 0.0657 |
| GGGAAAGACCAUGUUUGUATT against Ttbk1 | inactive: 0.564 |
| GGAUCAGACAUGCAAGAGGTT against Xlr5 | inactive: -0.0653 |

Further entries.

| Sequence | z-score |
| --- | --- |
| CCUGAUAACUGAUGCCGUATT against Gyltl1b | inactive: -0.648 |
| GGACAUGGAUGACACUGAUTT against 0610007P22Rik | inactive: 1.15 |
| GGAACUCUAUGCCAAUACCTT against Fhl2 | inactive: 0.99 |
| ACUCAGUCAUUAAAGAGUGTT against G430095P16Rik | inactive: -0.551 |
| GCCCUGCUGUUGUCAGUCUTT against Krtap5-1 | inactive: -0.789 |
| GGGCAACAUUGCGCAAAUGTT against Pwp2h | inactive: -1.89 |
| GGGAUAAGCAUGCUCAGUGTT against Mrgpra2 | inactive: -2.71 |
| GCGAGAGAUGAAAUGGGUGTT against 1810062O14Rik | inactive: -0.666 |
| GGGUUUCUGUGAGAGACAATT against 2510010F15Rik | inactive: -0.0737 |
| GGGACAGCAGUUCAUUCUATT against Cryba2 | inactive: 0.129 |
| GGCUCCAAGUCUACACAACTT against Dnajc6 | inactive: -0.25 |
| CGGCAAAGUCCUCACAGCUTT against 1110020M19Rik | inactive: -1.12 |
| GCCUGACAAUAGUCAUUUCTT against Olfr985 | inactive: 0.857 |
| GGACAACAAGAUCAGGACCTT against Akap4 | inactive: -0.832 |
| GGAAAAAGCCAAGCUCAUCTT against Syt3 | inactive: -0.0737 |
| GCAAGUCAAGCUAGAAAAATT against Slc16a1 | inactive: 1.21 |
| GCGGUAGGGAUGAAAUAGUTT against Ccnd1 | inactive: -0.424 |
| CCAUGGUUCUCAUUAGUAATT against Adk | inactive: -0.138 |
| CCCUCCACUAUGAUCAAUCTT against Gpr56 | inactive: 3.01 |
| GCUAAUUGAGACCUAUUUCTT against Plp1 | inactive: 0.272 |
| CCUGGUUAGAGAAUGGAAATT against SIRP-beta | inactive: 1.15 |
| GGAAAGAUAGAAGACAAACTT against Spry4 | inactive: 1.06 |
| GGUAGUAUCUGGCAUAAAATT against Fhl4 | inactive: 0.419 |
| GCCUGGUAUGAGGAUCUGCTT against Ddit3 | inactive: 0.527 |
